Results published in the supplement of paper PMC12819154, “High-throughput peptide-centric local stability assay extends protein–ligand identification to membrane proteins, tissues and bacteria” (Nature Structural & Molecular Biology, 2025).
The other results are listed elsewhere or left out. Small differences around the control level are noise.

Sequences of proteins named here, by UniProt entry; tags and fusion partners are left off. A change or cut given only in a name is not applied to a line headed by its entry.
UniProt Q8CHP8: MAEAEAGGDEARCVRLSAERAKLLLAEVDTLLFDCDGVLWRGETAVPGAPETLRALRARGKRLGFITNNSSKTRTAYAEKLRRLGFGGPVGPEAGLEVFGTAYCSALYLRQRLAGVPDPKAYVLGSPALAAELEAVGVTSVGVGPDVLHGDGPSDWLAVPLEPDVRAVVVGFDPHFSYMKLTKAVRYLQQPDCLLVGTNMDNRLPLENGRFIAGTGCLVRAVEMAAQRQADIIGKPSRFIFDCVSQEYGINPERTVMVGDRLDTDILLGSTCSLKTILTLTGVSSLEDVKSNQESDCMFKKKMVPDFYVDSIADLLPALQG
UniProt Q8CHP6: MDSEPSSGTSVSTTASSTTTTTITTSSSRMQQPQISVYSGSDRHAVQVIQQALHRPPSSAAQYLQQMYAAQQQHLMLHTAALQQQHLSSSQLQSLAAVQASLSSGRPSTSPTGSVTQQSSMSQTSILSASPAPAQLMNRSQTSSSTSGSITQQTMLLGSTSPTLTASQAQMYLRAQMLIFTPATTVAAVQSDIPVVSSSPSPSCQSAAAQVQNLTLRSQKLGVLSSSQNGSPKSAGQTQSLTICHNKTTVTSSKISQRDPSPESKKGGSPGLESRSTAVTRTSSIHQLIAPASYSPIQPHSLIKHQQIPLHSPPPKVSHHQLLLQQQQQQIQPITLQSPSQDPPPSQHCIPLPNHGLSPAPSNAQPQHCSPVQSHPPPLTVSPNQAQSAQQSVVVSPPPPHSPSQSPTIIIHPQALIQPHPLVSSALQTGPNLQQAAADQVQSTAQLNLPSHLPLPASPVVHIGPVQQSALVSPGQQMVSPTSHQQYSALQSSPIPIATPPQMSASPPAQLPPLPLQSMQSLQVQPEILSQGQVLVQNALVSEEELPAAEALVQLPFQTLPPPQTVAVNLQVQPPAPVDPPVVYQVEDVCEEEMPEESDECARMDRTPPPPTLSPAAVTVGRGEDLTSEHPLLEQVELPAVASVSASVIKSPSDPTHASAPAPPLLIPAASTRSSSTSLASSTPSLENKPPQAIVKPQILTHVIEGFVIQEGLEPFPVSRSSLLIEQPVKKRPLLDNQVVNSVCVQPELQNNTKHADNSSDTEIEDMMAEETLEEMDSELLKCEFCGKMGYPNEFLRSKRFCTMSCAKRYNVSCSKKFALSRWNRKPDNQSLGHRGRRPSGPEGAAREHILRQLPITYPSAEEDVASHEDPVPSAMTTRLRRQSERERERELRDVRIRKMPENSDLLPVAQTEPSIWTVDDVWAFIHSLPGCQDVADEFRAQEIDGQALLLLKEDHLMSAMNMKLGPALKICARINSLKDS
UniProt Q8CBY0: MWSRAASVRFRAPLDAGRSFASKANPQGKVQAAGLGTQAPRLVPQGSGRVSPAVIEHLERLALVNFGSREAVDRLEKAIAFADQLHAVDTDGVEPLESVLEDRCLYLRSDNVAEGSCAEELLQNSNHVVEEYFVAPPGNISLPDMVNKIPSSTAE
UniProt Q8CFI5: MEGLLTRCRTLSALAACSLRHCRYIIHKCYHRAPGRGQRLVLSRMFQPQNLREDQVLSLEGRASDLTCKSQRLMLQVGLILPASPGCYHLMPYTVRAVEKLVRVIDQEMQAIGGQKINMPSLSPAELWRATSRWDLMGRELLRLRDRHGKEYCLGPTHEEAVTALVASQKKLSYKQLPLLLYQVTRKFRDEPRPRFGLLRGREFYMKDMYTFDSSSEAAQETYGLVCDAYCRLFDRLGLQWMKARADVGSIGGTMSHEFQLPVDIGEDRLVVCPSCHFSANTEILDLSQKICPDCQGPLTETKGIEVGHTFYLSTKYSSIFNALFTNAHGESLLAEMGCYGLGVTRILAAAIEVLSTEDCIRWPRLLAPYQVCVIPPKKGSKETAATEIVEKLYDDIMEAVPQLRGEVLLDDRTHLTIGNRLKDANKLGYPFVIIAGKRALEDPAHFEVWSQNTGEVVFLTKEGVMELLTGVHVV
UniProt Q8CG73: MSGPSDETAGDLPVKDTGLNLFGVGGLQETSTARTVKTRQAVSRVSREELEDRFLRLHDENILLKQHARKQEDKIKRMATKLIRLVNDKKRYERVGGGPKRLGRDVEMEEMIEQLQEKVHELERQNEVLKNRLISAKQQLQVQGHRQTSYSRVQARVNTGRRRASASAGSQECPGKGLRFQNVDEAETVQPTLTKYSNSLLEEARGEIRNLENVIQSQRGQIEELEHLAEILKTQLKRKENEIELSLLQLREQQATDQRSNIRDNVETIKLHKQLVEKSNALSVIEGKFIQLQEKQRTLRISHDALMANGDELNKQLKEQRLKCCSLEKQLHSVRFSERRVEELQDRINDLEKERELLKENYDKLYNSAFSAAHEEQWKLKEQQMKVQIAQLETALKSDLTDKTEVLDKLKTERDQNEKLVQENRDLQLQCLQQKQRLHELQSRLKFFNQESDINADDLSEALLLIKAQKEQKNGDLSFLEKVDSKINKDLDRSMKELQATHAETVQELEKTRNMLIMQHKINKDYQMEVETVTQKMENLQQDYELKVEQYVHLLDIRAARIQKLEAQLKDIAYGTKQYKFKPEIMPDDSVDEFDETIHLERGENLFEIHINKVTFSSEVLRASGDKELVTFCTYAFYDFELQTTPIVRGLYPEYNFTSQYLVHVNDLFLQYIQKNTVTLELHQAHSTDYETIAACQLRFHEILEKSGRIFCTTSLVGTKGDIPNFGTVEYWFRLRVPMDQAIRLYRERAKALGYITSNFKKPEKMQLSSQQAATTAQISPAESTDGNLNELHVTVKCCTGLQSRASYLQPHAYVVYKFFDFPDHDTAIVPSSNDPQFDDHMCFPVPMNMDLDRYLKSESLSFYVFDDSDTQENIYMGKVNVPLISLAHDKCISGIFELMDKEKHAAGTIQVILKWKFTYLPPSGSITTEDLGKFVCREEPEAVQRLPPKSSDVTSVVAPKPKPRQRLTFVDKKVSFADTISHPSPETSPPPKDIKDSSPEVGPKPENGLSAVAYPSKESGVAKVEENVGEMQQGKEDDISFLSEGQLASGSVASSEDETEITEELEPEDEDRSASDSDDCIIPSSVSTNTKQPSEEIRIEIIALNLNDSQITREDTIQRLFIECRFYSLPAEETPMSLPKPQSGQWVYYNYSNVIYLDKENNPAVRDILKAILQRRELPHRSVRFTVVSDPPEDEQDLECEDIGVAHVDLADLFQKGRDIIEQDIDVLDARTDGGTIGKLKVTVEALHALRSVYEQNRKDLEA

These targets were tested with CN[C@@H]1C[C@H]2O[C@@](C)([C@@H]1OC)n1c3ccccc3c3c4c(c5c6ccccc6n2c5c31)C(=O)NC4 [staurosporine] (assay: log2 fold change of tryptic peptide abundance, ligand vs vehicle (limited proteolysis) (log2 ratio); higher = more trypsin-susceptible (destabilized)). Conditions: ligand concentration: 20 uM; sample: mouse liver crude lysate; replicate design: treated separately.

Row | Target | log2 fold change
1 | UniProt Q8CHP8 (peptide sequence: AVVVGFDPHFSYMK, peptide start residue: 167) | -0.463
2 | UniProt Q8CHP6 (peptide sequence: FCTMSCAK, peptide start residue: 801) | 0.405
3 | UniProt Q8CBY0 (peptide sequence: VSPAVIEHLER, peptide start residue: 50) | 0.2
4 | UniProt Q8CFI5 (peptide sequence: HGKEYCLGPTHEEAVTALVASQKK, peptide start residue: 148) | -0.675
5 | UniProt Q8CG73 (peptide sequence: SSDVTSVVAPKPKPR, peptide start residue: 951) | -0.183
